Values quoted from earlier work as cited in US20190133518A1, “METHODS AND SYSTEMS FOR DETERMINING DIURETIC RESPONSE PROFILES” (PACESETTER, INC., priority 2017, published 2019).
Some results were stated once for a whole list of compounds, not compound by compound.

Conditions: in vivo; cited from earlier work

Compound	bioavailability
CCCCNc1cc(C(=O)O)cc(S(N)(=O)=O)c1Oc1ccccc1 [bumetanide]	exceed 80%
Cc1cccc(Nc2ccncc2S(=O)(=O)NC(=O)NC(C)C)c1 [torsemide]	exceed 80%
